# No constants are given. Whether binding was seen depends on the method and setting. Binding seen in cells or lysates may run through a third protein. Some results given as binding are weak or reduced against the parent protein; the word gives no strength.
# Amino acid sequences for entries named in this document (tags omitted).
# UniProt P24529: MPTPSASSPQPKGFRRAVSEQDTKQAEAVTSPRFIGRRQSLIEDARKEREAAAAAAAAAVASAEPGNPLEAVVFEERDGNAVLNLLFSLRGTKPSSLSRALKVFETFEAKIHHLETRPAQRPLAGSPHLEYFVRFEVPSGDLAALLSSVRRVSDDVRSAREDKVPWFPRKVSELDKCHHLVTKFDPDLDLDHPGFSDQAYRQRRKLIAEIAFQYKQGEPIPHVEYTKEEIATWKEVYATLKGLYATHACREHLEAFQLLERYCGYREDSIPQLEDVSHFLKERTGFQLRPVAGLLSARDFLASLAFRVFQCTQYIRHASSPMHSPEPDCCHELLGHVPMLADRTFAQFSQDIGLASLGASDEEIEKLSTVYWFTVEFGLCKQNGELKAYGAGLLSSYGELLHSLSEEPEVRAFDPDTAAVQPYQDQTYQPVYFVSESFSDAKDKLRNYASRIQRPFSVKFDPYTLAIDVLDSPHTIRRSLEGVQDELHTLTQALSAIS
# B1: Dnajc12 (endogenous, mouse brain) (protein, UniProt Q9R022 1-198)
# chain: MDAILNYRPEGSEDYYALLGCDELSSVEQILAEFKIRALECHPDKHPENSKAVETFQKLQKAKEILCNAESRARYDHWRRSQMSMPFEQWEALADSVKTSMHWAVRSKKDLMLEGSGQTFTSSVPNKERSEQRETKKGDPDSNPEKMKQKEPKFPEEGISPQNPDSPGLSDLNCGHLRFRWSGDAPSELLRKFRNYEI
# Target: Th (endogenous, mouse brain) (mouse (endogenous in brain tissue)) (UniProt P24529)
# Assay: co-IP
binder,measurement,value
B1,binding,binds

# — publication doi:10.1101/2024.07.06.602343
